From the supplement of paper PMC8728848
The list shows a part of the results.

Key:
Test in all cases: glycan array binding signal (z-score within array); higher = stronger binding
Conditions in all cases: glycan notation: IUPAC condensed, linker removed
[1] = molecular target: Fuc(a1-2)Gal(b1-4)GlcNAc(b1-6)GalNAc
In short: (§1)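 The Consortium for Functional Glycomics database supplied 3228 glycan arrays, of which those lacking an available protein sequence were dropped. The binding signal, a within-array Z-score, was averaged across arrays of the same protein sequence and across linkers. Negative scores can be read as non-binding.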

[2] = molecular target: Fuc(a1-2)Gal(b1-4)GlcNAc6S
In short: as §1

[3] = molecular target: Fuc(a1-2)Gal(b1-4)[Fuc(a1-3)]GlcNAc
In short: as §1

[4] = molecular target: Fuc(a1-2)Gal(b1-4)[Fuc(a1-3)]GlcNAc(b1-2)Man(a1-3)[Fuc(a1-2)Gal(b1-4)[Fuc(a1-3)]GlcNAc(b1-2)Man(a1-6)]Man(b1-4)GlcNAc(b1-4)GlcNAc
In short: as §1

[5] = molecular target: Fuc(a1-2)Gal(b1-4)[Fuc(a1-3)]GlcNAc(b1-2)Man(a1-3)[Fuc(a1-2)Gal(b1-4)[Fuc(a1-3)]GlcNAc(b1-2)Man(a1-6)]Man(b1-4)GlcNAc(b1-4)[Fuc(a1-6)]GlcNAc
In short: as §1

[6] = molecular target: Fuc(a1-2)Gal(b1-4)[Fuc(a1-3)]GlcNAc(b1-2)[Fuc(a1-2)Gal(b1-4)[Fuc(a1-3)]GlcNAc(b1-4)]Man(a1-3)[Fuc(a1-2)Gal(b1-4)[Fuc(a1-3)]GlcNAc(b1-2)Man(a1-6)]Man(b1-4)GlcNAc(b1-4)GlcNAc
In short: as §1

[7] = molecular target: Fuc(a1-2)Gal(b1-4)[Fuc(a1-3)]GlcNAc(b1-3)Gal(b1-4)[Fuc(a1-3)]GlcNAc
In short: as §1

[8] = molecular target: Fuc(a1-2)Gal(b1-4)[Fuc(a1-3)]GlcNAc(b1-3)Gal(b1-4)[Fuc(a1-3)]GlcNAc(b1-3)Gal(b1-4)[Fuc(a1-3)]GlcNAc
In short: as §1

[9] = molecular target: Fuc(a1-2)Gal(b1-4)[Fuc(a1-3)]GlcNAc(b1-3)GalNAc
In short: as §1

[10] = molecular target: Fuc(a1-2)Gal(b1-4)[Fuc(a1-3)]GlcNAc(b1-3)[Neu5Ac(a2-6)Gal(b1-4)GlcNAc(b1-6)]Gal(b1-4)Glc
In short: as §1

[11] = molecular target: Fuc(a1-2)Gal3S(b1-4)GlcNAc
In short: as §1

[12] = molecular target: Fuc(a1-2)Gal6S(b1-3)GlcNAc
In short: as §1

[13] = molecular target: Fuc(a1-2)Gal6S(b1-3)GlcNAc6S
In short: as §1

Fuc(a1-2)Gal6S(b1-4)Glc = molecular target: Fuc(a1-2)Gal6S(b1-4)Glc
In short: as §1

[14] = molecular target: Fuc(a1-2)Gal6S(b1-4)Glc6S
In short: as §1

[15] = molecular target: Fuc(a1-2)Gal6S(b1-4)GlcNAc
In short: as §1

Fuc(a1-2)[Gal(a1-3)]Gal = molecular target: Fuc(a1-2)[Gal(a1-3)]Gal
In short: as §1

[16] = molecular target: Fuc(a1-2)[Gal(a1-3)]Gal(b1-3)GalNAc
In short: as §1

[17] = molecular target: Fuc(a1-2)[Gal(a1-3)]Gal(b1-3)GalNAc(b1-3)Gal(a1-4)Gal(b1-4)Glc
In short: as §1

[18] = molecular target: Fuc(a1-2)[Gal(a1-3)]Gal(b1-3)GlcNAc
In short: as §1

[19] = molecular target: Fuc(a1-2)[Gal(a1-3)]Gal(b1-3)GlcNAc(b1-2)Man(a1-3)[Fuc(a1-2)[Gal(a1-3)]Gal(b1-3)GlcNAc(b1-2)Man(a1-6)]Man(b1-4)GlcNAc(b1-4)GlcNAc
In short: as §1

[20] = molecular target: Fuc(a1-2)[Gal(a1-3)]Gal(b1-3)GlcNAc(b1-2)Man(a1-3)[Fuc(a1-2)[Gal(a1-3)]Gal(b1-3)GlcNAc(b1-2)Man(a1-6)]Man(b1-4)GlcNAc(b1-4)[Fuc(a1-6)]GlcNAc
In short: as §1

[21] = molecular target: Fuc(a1-2)[Gal(a1-3)]Gal(b1-3)GlcNAc(b1-3)GalNAc
In short: as §1

[22] = molecular target: Fuc(a1-2)[Gal(a1-3)]Gal(b1-3)GlcNAc(b1-6)GalNAc
In short: as §1

[23] = molecular target: Fuc(a1-2)[Gal(a1-3)]Gal(b1-4)Glc
In short: as §1

[24] = molecular target: Fuc(a1-2)[Gal(a1-3)]Gal(b1-4)GlcNAc
In short: as §1

[25] = molecular target: Fuc(a1-2)[Gal(a1-3)]Gal(b1-4)GlcNAc(b1-2)Man
In short: as §1

[26] = molecular target: Fuc(a1-2)[Gal(a1-3)]Gal(b1-4)GlcNAc(b1-2)Man(a1-3)[Fuc(a1-2)[Gal(a1-3)]Gal(b1-4)GlcNAc(b1-2)Man(a1-6)]Man(b1-4)GlcNAc(b1-4)GlcNAc
In short: as §1

[27] = molecular target: Fuc(a1-2)[Gal(a1-3)]Gal(b1-4)GlcNAc(b1-2)Man(a1-3)[Fuc(a1-2)[Gal(a1-3)]Gal(b1-4)GlcNAc(b1-2)Man(a1-6)]Man(b1-4)GlcNAc(b1-4)[Fuc(a1-6)]GlcNAc
In short: as §1

[28] = molecular target: Fuc(a1-2)[Gal(a1-3)]Gal(b1-4)GlcNAc(b1-3)GalNAc
In short: as §1

[29] = molecular target: Fuc(a1-2)[Gal(a1-3)]Gal(b1-4)GlcNAc(b1-3)[Fuc(a1-2)[Gal(a1-3)]Gal(b1-4)GlcNAc(b1-6)]GalNAc
In short: as §1

[30] = molecular target: Fuc(a1-2)[Gal(a1-3)]Gal(b1-4)GlcNAc(b1-6)GalNAc
In short: as §1

[31] = molecular target: Fuc(a1-2)[Gal(a1-3)]Gal(b1-4)[Fuc(a1-3)]Glc
In short: as §1

[32] = molecular target: Fuc(a1-2)[Gal(a1-3)]Gal(b1-4)[Fuc(a1-3)]GlcNAc
In short: as §1

[33] = molecular target: Fuc(a1-2)[Gal(a1-3)]Gal(b1-4)[Fuc(a1-3)]GlcNAc(b1-3)GalNAc
In short: as §1

[34] = molecular target: Fuc(a1-2)[Gal(a1-4)]Gal(b1-4)GlcNAc
In short: as §1

[35] = molecular target: Fuc(a1-2)[GalNAc(a1-3)]Gal
In short: as §1

[36] = molecular target: Fuc(a1-2)[GalNAc(a1-3)]Gal(b1-3)GalNAc(a1-3)[Fuc(a1-2)]Gal(b1-4)GlcNAc
In short: as §1

B1: MFG-E8 (Mus musculus), P21956 (protein)
chain: MQVSRVLAALCGMLLCASGLFAASGDFCDSSLCLNGGTCLTGQDNDIYCLCPEGFTGLVCNETERGPCSPNPCYNDAKCLVTLDTQRGDIFTEYICQCPVGYSGIHCETETNYYNLDGEYMFTTAVPNTAVPTPAPTPDLSNNLASRCSTQLGMEGGAIADSQISASSVYMGFMGLQRWGPELARLYRTGIVNAWTASNYDSKPWIQVNLLRKMRVSGVMTQGASRAGRAEYLKTFKVAYSLDGRKFEFIQDESGGDKEFLGNLDNNSLKVNMFNPTLEAQYIKLYPVSCHRGCTLRFELLGCELHGCSEPLGLKNNTIPDSQMSASSSYKTWNLRAFGWYPHLGRLDNQGKINAWTAQSNSAKEWLQVDLGTQRQVTGIITQGARDFGHIQYVASYKVAHSDDGVQWTVYEEQGSSKVFQGNLDNNSHKKNIFEKPFMARYVRVLPVSWHNRITLRLELLGC
[1]
  glycan array binding signal (z-score): -0.31
[2]
  glycan array binding signal (z-score): 0.247
[3]
  glycan array binding signal (z-score): -0.275
[4]
  glycan array binding signal (z-score): 1.02
[5]
  glycan array binding signal (z-score): 0.456
[6]
  glycan array binding signal (z-score): 0.811
[7]
  glycan array binding signal (z-score): 0.033
[8]
  glycan array binding signal (z-score): -0.191
[9]
  glycan array binding signal (z-score): 0.914
[10]
  glycan array binding signal (z-score): 0.079
[11]
  glycan array binding signal (z-score): -0.182
[12]
  glycan array binding signal (z-score): 0.086
[13]
  glycan array binding signal (z-score): 8.57
Fuc(a1-2)Gal6S(b1-4)Glc
  glycan array binding signal (z-score): -0.377
[14]
  glycan array binding signal (z-score): 0.059
[15]
  glycan array binding signal (z-score): -0.269
Fuc(a1-2)[Gal(a1-3)]Gal
  glycan array binding signal (z-score): 0.081
[16]
  glycan array binding signal (z-score): 0.041
[17]
  glycan array binding signal (z-score): 0.733
[18]
  glycan array binding signal (z-score): 0.566
[19]
  glycan array binding signal (z-score): 0.574
[20]
  glycan array binding signal (z-score): -0.101
[21]
  glycan array binding signal (z-score): 0.812
[22]
  glycan array binding signal (z-score): 0.488
[23]
  glycan array binding signal (z-score): 0.449
[24]
  glycan array binding signal (z-score): -0.338
[25]
  glycan array binding signal (z-score): -0.357
[26]
  glycan array binding signal (z-score): 0.572
[27]
  glycan array binding signal (z-score): -0.278
[28]
  glycan array binding signal (z-score): 0.138
[29]
  glycan array binding signal (z-score): -0.052
[30]
  glycan array binding signal (z-score): 1.55
[31]
  glycan array binding signal (z-score): -0.425
[32]
  glycan array binding signal (z-score): -0.585
[33]
  glycan array binding signal (z-score): 2.33
[34]
  glycan array binding signal (z-score): -0.24
[35]
  glycan array binding signal (z-score): -0.22
[36]
  glycan array binding signal (z-score): -0.14
